Source: publication PMC7819943, “Rice protein-binding microarrays: a tool to detect cis-acting elements near promoter regions in rice”
The other results are listed elsewhere or left out.

Amino acid sequences for entries named in this document (tags omitted).
UniProt Q0JBA9, entry or part of it: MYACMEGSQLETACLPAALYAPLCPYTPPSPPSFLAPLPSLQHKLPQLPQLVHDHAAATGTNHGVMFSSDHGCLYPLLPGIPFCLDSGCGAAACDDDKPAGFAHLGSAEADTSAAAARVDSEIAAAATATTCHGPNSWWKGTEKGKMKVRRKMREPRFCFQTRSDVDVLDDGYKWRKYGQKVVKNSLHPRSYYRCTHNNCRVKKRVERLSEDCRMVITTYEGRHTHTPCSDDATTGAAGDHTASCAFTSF

Target: OsWRKY34 (Oryza sativa, UniProt Q0JBA9 1-250)
Assay: protein-binding microarray (RPBM); PBS, 2% BSA, 51.3 ng/ul salmon testes DNA, 50 uM zinc acetate, 200 nM TF, 25 C, 1 h; high values mean tight binding
Conditions: protein: recombinant; tags: N-terminal polyhistidine and DsRed monomer fusion (pET32a); label: CyDye5-dUTP incorporated in the synthesized complementary strand; 3' TTTTT single-stranded linker to array surface; dsDNA, one strand shown
Procedure, shortened: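 Transcription factors, each fused N-terminally to a polyhistidine tag and DsRed, were expressed in E. coli BL21-CodonPlus and purified on Ni–NTA. A custom Agilent array was made double-stranded by primer extension with Cy5-dUTP and blocked with 2% BSA. It was incubated with 200 nM protein in PBS, 2% BSA, salmon testes DNA and 50 µM zinc acetate at 25 °C for 1 h, then washed. The binding signal is per-feature fluorescence intensity (arbitrary units) read on an Axon 4000B scanner.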

**Q.** How did the binding signal turn out when “ACTAAACTCTGCCTTCATCATATTCCCAGCTGGTAACTCTCGGAGTCACCTAGTGCAG” was run?
**A.** 10300 fluorescence intensity (a.u.)

**Q.** For “CGCCCACTCCGCTGACCCTTTTGTTCCTCGAACCCACCCTCGGAGTCACCTAGTGCAG”, which binding signal is on record?
**A.** 10300 fluorescence intensity (a.u.)

**Q.** Which binding signal does the source give for “TCCGACCTGTCTCGCTTTCCTCGCCGGCGGCCGCTCCCTTCGGAGTCACCTAGTGCAG” here?
**A.** 8480 fluorescence intensity (a.u.)

**Q.** How did the binding signal turn out when “CCCTCTGCTCATGCCCTGCCCCACATGTCAGCCTCACGCCCGGAGTCACCTAGTGCAG” was run?
**A.** 9360 fluorescence intensity (a.u.)

**Q.** How did the binding signal turn out when “CCGGTTCGACAGGCCTCGCGGCGCCGGGTGGTGGGCCCTGCGGAGTCACCTAGTGCAG” was run?
**A.** 8180 fluorescence intensity (a.u.)

**Q.** How did the binding signal turn out when “GTCGGTGGAGCGGCCCTTTTTATTTCTGTGGGAGGAGGGTCGGAGTCACCTAGTGCAG” was run?
**A.** 9300 fluorescence intensity (a.u.)

**Q.** With “TCGAGTCGTCGTCTTCGTCTCCGTTCCGTTGCGCCGCCTCCGGAGTCACCTAGTGCAG” as the sequence, how does the binding signal read?
**A.** 9560 fluorescence intensity (a.u.)

**Q.** How did the binding signal turn out when “AACGCTTAGACATTTCAACGTTCTCCTCCACAGCAACAGCCGGAGTCACCTAGTGCAG” was run?
**A.** 9390 fluorescence intensity (a.u.)

**Q.** For “ATACCTGATCCTACTTGTCATACACATATTTATCTTATAGCGGAGTCACCTAGTGCAG”, which binding signal is on record?
**A.** 9880 fluorescence intensity (a.u.)

**Q.** With “AGTCCACACCCCACCACCACTCCACCACCATCCCAACCAACGGAGTCACCTAGTGCAG” as the sequence, how does the binding signal read?
**A.** 9670 fluorescence intensity (a.u.)

**Q.** How did the binding signal turn out when “GAGTAGTAGTGGTGGTGGTGGTATTAGTAGCAGTGAGATGCGGAGTCACCTAGTGCAG” was run?
**A.** 12400 fluorescence intensity (a.u.)

**Q.** With “AACTAACACACTCTTTCATCGTCCCTTGCTGTCAGCAGACCGGAGTCACCTAGTGCAG” as the sequence, how does the binding signal read?
**A.** 8840 fluorescence intensity (a.u.)

**Q.** With “AACATCGGCTCGTAGCTGTTTTTGGTAGTTGGCACACGTTCGGAGTCACCTAGTGCAG” as the sequence, how does the binding signal read?
**A.** 8700 fluorescence intensity (a.u.)

**Q.** Which binding signal does the source give for “CACCATCCATGCATATGCATCTTGTAGTTATTGCTTGCTCCGGAGTCACCTAGTGCAG” here?
**A.** 9580 fluorescence intensity (a.u.)

**Q.** With “TTCCGCTTCTATAAATACCTCTCCCATTTCGCAACTTTTCCGGAGTCACCTAGTGCAG” as the sequence, how does the binding signal read?
**A.** 9610 fluorescence intensity (a.u.)

**Q.** “CGTCTTCGTCTCCGGCCGCCTCTCCGCCTCCACTCTTCCTCGGAGTCACCTAGTGCAG” was tested. Which binding signal did it give?
**A.** 9690 fluorescence intensity (a.u.)

**Q.** With “ACTGTGCCAACCTCTGGTTTTGGTTTTTTCCGGTTGAACCCGGAGTCACCTAGTGCAG” as the sequence, how does the binding signal read?
**A.** 8800 fluorescence intensity (a.u.)

**Q.** With “TTTATTATCCTTGTCAGCTGTAGCCCATCGAATTTCAACGCGGAGTCACCTAGTGCAG” as the sequence, how does the binding signal read?
**A.** 9560 fluorescence intensity (a.u.)

**Q.** “TACAACTTTGTTTCAAACAACTTTTTCACATAAGTTCATTCGGAGTCACCTAGTGCAG” was tested. Which binding signal did it give?
**A.** 8180 fluorescence intensity (a.u.)

**Q.** With “GTTTCAACCTCTTGGTAACTTTCCTTTGAGTGTATCTCTCCGGAGTCACCTAGTGCAG” as the sequence, how does the binding signal read?
**A.** 8210 fluorescence intensity (a.u.)

**Q.** With “GGATGCAAAGGTGTAAAGGGTTGAAGGTTCGATCGAGATACGGAGTCACCTAGTGCAG” as the sequence, how does the binding signal read?
**A.** 9640 fluorescence intensity (a.u.)

**Q.** For “AAGACGTTTTGACTTTGGTTAAAGTCAAACTGTTTTAAATCGGAGTCACCTAGTGCAG”, which binding signal is on record?
**A.** 10200 fluorescence intensity (a.u.)

**Q.** Which binding signal does the source give for “CGCTGTCCCCGCCCACGCGGCGACGCCACGTGTCCCCACCCGGAGTCACCTAGTGCAG” here?
**A.** 8480 fluorescence intensity (a.u.)
